Test results taken from PMC5533585.

Amino acid sequences for entries named in this document (tags omitted).
UniProt Q8TD16: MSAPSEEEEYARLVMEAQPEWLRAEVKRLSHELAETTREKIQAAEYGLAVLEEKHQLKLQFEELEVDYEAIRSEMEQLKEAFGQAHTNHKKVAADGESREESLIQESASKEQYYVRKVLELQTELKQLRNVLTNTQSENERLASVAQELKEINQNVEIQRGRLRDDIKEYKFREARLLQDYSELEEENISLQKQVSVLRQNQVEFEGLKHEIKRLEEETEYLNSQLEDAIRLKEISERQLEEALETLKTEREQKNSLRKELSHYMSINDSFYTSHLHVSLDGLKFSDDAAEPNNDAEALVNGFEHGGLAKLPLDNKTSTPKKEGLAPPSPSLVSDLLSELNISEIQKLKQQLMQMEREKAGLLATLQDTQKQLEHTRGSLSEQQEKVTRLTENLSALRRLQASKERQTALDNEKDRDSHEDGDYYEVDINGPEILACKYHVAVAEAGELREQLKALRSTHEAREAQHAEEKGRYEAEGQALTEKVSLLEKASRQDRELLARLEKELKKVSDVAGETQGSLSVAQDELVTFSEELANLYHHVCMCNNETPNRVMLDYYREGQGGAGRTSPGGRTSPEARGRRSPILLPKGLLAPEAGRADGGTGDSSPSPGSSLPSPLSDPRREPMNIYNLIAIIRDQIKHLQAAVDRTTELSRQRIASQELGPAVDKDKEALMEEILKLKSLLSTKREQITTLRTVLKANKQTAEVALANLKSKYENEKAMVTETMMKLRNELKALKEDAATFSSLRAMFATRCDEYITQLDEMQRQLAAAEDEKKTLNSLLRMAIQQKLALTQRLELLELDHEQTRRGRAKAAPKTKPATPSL

B1: BICD1 (protein, UniProt Q96G01 1-975)
chain: MAAEEVLQTVDHYKTEIERLTKELTETTHEKIQAAEYGLVVLEEKLTLKQQYDELEAEYDSLKQELEQLKEAFGQSFSIHRKVAEDGETREETLLQESASKEAYYLGKILEMQNELKQSRAVVTNVQAENERLTAVVQDLKENNEMVELQRIRMKDEIREYKFREARLLQDYTELEEENITLQKLVSTLKQNQVEYEGLKHEIKRFEEETVLLNSQLEDAIRLKEIAEHQLEEALETLKNEREQKNNLRKELSQYISLNDNHISISVDGLKFAEDGSEPNNDDKMNGHIHGPLVKLNGDYRTPTLRKGESLNPVSDLFSELNISEIQKLKQQLMQVEREKAILLANLQESQTQLEHTKGALTEQHERVHRLTEHVNAMRGLQSSKELKAELDGEKGRDSGEEAHDYEVDINGLEILECKYRVAVTEVIDLKAEIKALKEKYNKSVENYTDEKAKYESKIQMYDEQVTSLEKTTKESGEKMAHMEKELQKMTSIANENHSTLNTAQDELVTFSEELAQLYHHVCLCNNETPNRVMLDYYRQSRVTRSGSLKGPDDPRGLLSPRLARRGVSSPVETRTSSEPVAKESTEASKEPSPTKTPTISPVITAPPSSPVLDTSDIRKEPMNIYNLNAIIRDQIKHLQKAVDRSLQLSRQRAAARELAPMIDKDKEALMEEILKLKSLLSTKREQIATLRAVLKANKQTAEVALANLKNKYENEKAMVTETMTKLRNELKALKEDAATFSSLRAMFATRCDEYVTQLDEMQRQLAAAEDEKKTLNTLLRMAIQQKLALTQRLEDLEFDHEQSRRSKGKLGKSKIGSPKVSGEASVTVPTIDTYLLHSQGPQTPNIRVSSGTQRKRQFSPSLCDQSRPRTSGASYLQNLLRVPPDPTSTESFLLKGPPSMSEFIQGHRLSKEKRLTVAPPDCQQPAASVPPQCSQLAGRQDCPTVSPDTALPEEQPHSSSQCAPLHCLSKPPHP
B2: KIF1C (protein, UniProt O43896 1-1103)
chain: MAGASVKVAVRVRPFNARETSQDAKCVVSMQGNTTSIINPKQSKDAPKSFTFDYSYWSHTSTEDPQFASQQQVYRDIGEEMLLHAFEGYNVCIFAYGQTGAGKSYTMMGRQEPGQQGIVPQLCEDLFSRVSENQSAQLSYSVEVSYMEIYCERVRDLLNPKSRGSLRVREHPILGPYVQDLSKLAVTSYADIADLMDCGNKARTVAATNMNETSSRSHAVFTIVFTQRCHDQLTGLDSEKVSKISLVDLAGSERADSSGARGMRLKEGANINKSLTTLGKVISALADMQSKKRKSDFIPYRDSVLTWLLKENLGGNSRTAMIAALSPADINYEETLSTLRYADRTKQIRCNAIINEDPNARLIRELQEEVARLRELLMAQGLSASALEGLKTEEGSVRGALPAVSSPPAPVSPSSPTTHNGELEPSFSPNTESQIGPEEAMERLQETEKIIAELNETWEEKLRKTEALRMEREALLAEMGVAVREDGGTVGVFSPKKTPHLVNLNEDPLMSECLLYHIKDGVTRVGQVDMDIKLTGQFIREQHCLFRSIPQPDGEVVVTLEPCEGAETYVNGKLVTEPLVLKSGNRIVMGKNHVFRFNHPEQARLERERGVPPPPGPPSEPVDWNFAQKELLEQQGIDIKLEMEKRLQDLENQYRKEKEEADLLLEQQRLYADSDSGDDSDKRSCEESWRLISSLREQLPPTTVQTIVKRCGLPSSGKRRAPRRVYQIPQRRRLQGKDPRWATMADLKMQAVKEICYEVALADFRHGRAEIEALAALKMRELCRTYGKPDGPGDAWRAVARDVWDTVGEEEGGGAGSGGGSEEGARGAEVEDLRAHIDKLTGILQEVKLQNSSKDRELQALRDRMLRMERVIPLAQDHEDENEEGGEVPWAPPEGSEAAEEAAPSDRMPSARPPSPPLSSWERVSRLMEEDPAFRRGRLRWLKQEQLRLQGLQGSGGRGGGLRRPPARFVPPHDCKLRFPFKSNPQHRESWPGMGSGEAPTPLQPPEEVTPHPATPARRPPSPRRSHHPRRNSLDGGGRSRGAGSAQPEPQHFQPKKHNSYPQPPQPYPAQRPPGPRYPPYTTPPRMRRQRSAPDLKESGAAV

Legend:
Test in all cases: proximity labelling; BioID in living stable HEK-293 cells, 50 µM biotin for 16 hr; lysis in RIPA buffer; streptavidin beads; MS/MS; hits >3-fold enriched over a BioID alone control
[1] = target: BICD2 tagged with BioID (BICD2 datasets; N- or C-terminal fusion not told) (human) (UniProt Q8TD16)
IC2-BioID-3×FLAG (human) = target: IC2-BioID-3×FLAG (human)
[2] = target: T1, HOOK3-BioID-3×FLAG (human) (UniProt Q86VS8)
T1 sequence: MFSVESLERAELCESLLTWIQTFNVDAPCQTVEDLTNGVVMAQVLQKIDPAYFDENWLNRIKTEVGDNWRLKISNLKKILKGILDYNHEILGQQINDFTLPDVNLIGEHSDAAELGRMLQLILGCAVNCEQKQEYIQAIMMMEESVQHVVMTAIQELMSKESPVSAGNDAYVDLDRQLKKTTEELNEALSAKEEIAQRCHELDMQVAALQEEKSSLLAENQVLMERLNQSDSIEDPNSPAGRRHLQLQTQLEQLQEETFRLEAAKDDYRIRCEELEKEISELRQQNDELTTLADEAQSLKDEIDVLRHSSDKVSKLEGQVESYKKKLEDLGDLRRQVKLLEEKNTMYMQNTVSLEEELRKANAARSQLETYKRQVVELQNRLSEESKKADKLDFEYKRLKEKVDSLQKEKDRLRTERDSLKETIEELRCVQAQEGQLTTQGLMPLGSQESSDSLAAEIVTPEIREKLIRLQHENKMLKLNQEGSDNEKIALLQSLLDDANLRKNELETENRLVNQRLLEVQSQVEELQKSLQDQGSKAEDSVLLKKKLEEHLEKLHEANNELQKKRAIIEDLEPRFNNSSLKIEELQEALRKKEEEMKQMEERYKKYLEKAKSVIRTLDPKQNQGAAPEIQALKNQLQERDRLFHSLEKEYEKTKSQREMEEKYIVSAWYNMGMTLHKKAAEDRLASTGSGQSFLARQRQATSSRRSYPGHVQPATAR

| Binder | binding [1] | binding (IC2-BioID-3×FLAG (human)) | binding [2] |
| --- | --- | --- | --- |
| B1 | binds | binds | – |
| B2 | – | – | binds |

No constants are given. Whether binding was seen depends on the method and setting. Binding seen in cells or lysates may run through a third protein. A yes stands for co-enrichment or nearness to the bait. Other partners may have been found. For part of these data: Sequences can lack the tags named with a protein.
